# Test results: the supplement of paper PMC8728848
# Some of the results follow.
# How the values were obtained:
# Assay in all cases: glycan array binding signal (z-score within array); higher = stronger binding
# Conditions in all cases: glycan notation: IUPAC condensed, linker removed
# [1] = biological target: GlcNAc(a1-6)Gal(b1-4)GlcNAc
# How it was run: (§1)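 The binding signal is a Z-score computed within each array. Data were drawn from 3228 arrays in the Consortium for Functional Glycomics database, restricted to those with a known protein sequence. Scores were averaged over arrays of the same protein sequence at different concentrations or buffers, and over linkers, and negative values can be taken as non-binding.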
# [2] = biological target: GlcNAc(b1-2)Gal(b1-3)GalNAc
# How it was run: as §1
# [3] = biological target: GlcNAc(b1-2)Man(a1-3)[GlcNAc(b1-2)Man(a1-6)]Man(b1-4)GlcNAc(b1-4)GlcNAc
# How it was run: as §1
# [4] = biological target: GlcNAc(b1-2)Man(a1-3)[GlcNAc(b1-2)Man(a1-6)]Man(b1-4)GlcNAc(b1-4)[Fuc(a1-6)]GlcNAc
# How it was run: as §1
# [5] = biological target: GlcNAc(b1-2)Man(a1-3)[GlcNAc(b1-4)][GlcNAc(b1-2)Man(a1-6)]Man(b1-4)GlcNAc(b1-4)GlcNAc
# How it was run: as §1
# [6] = biological target: GlcNAc(b1-2)Man(a1-3)[GlcNAc(b1-4)][GlcNAc(b1-2)Man(a1-6)]Man(b1-4)GlcNAc(b1-4)[Fuc(a1-6)]GlcNAc
# How it was run: as §1
# [7] = biological target: GlcNAc(b1-2)[GlcNAc(b1-4)]Man(a1-3)[GlcNAc(b1-2)Man(a1-6)]Man(b1-4)GlcNAc(b1-4)GlcNAc
# How it was run: as §1
# [8] = biological target: GlcNAc(b1-2)[GlcNAc(b1-4)]Man(a1-3)[GlcNAc(b1-4)][GlcNAc(b1-2)Man(a1-6)]Man(b1-4)GlcNAc(b1-4)GlcNAc
# How it was run: as §1
# [9] = biological target: GlcNAc(b1-2)[GlcNAc(b1-4)]Man(a1-3)[GlcNAc(b1-4)][GlcNAc(b1-2)[GlcNAc(b1-6)]Man(a1-6)]Man(b1-4)GlcNAc(b1-4)GlcNAc
# How it was run: as §1
# [10] = biological target: GlcNAc(b1-2)[GlcNAc(b1-4)]Man(a1-3)[GlcNAc(b1-4)][GlcNAc(b1-2)[GlcNAc(b1-6)]Man(a1-6)]Man(b1-4)GlcNAc(b1-4)[Fuc(a1-6)]GlcNAc
# How it was run: as §1
# [11] = biological target: GlcNAc(b1-2)[GlcNAc(b1-6)]Man(a1-6)[GlcNAc(b1-2)Man(a1-3)]Man(b1-4)GlcNAc(b1-4)GlcNAc
# How it was run: as §1
# [12] = biological target: GlcNAc(b1-2)[GlcNAc(b1-6)]Man(a1-6)[GlcNAc(b1-2)Man(a1-3)]Man(b1-4)GlcNAc(b1-4)[Fuc(a1-6)]GlcNAc
# How it was run: as §1
# [13] = biological target: GlcNAc(b1-2)[GlcNAc(b1-6)]Man(a1-6)[GlcNAc(b1-4)][GlcNAc(b1-2)Man(a1-3)]Man(b1-4)GlcNAc(b1-4)GlcNAc
# How it was run: as §1
# [14] = biological target: GlcNAc(b1-3)Fuc
# How it was run: as §1
# [15] = biological target: GlcNAc(b1-3)Gal
# How it was run: as §1
# [16] = biological target: GlcNAc(b1-3)Gal(b1-3)GalNAc
# How it was run: as §1
# [17] = biological target: GlcNAc(b1-3)Gal(b1-4)Glc
# How it was run: as §1
# [18] = biological target: GlcNAc(b1-3)Gal(b1-4)GlcNAc
# How it was run: as §1
# [19] = biological target: GlcNAc(b1-3)Gal(b1-4)GlcNAc(b1-2)Man(a1-3)[GlcNAc(b1-3)Gal(b1-4)GlcNAc(b1-2)Man(a1-6)]Man(b1-4)GlcNAc(b1-4)GlcNAc
# How it was run: as §1
# [20] = biological target: GlcNAc(b1-3)Gal(b1-4)GlcNAc(b1-2)Man(a1-3)[GlcNAc(b1-3)Gal(b1-4)GlcNAc(b1-2)Man(a1-6)]Man(b1-4)GlcNAc(b1-4)[Fuc(a1-6)]GlcNAc
# How it was run: as §1
# [21] = biological target: GlcNAc(b1-3)Gal(b1-4)GlcNAc(b1-2)[GlcNAc(b1-3)Gal(b1-4)GlcNAc(b1-6)]Man(a1-6)[GlcNAc(b1-3)Gal(b1-4)GlcNAc(b1-2)Man(a1-3)]Man(b1-4)GlcNAc(b1-4)GlcNAc
# How it was run: as §1
# [22] = biological target: GlcNAc(b1-3)Gal(b1-4)GlcNAc(b1-3)Gal(b1-4)GlcNAc
# How it was run: as §1
# [23] = biological target: GlcNAc(b1-3)Gal(b1-4)GlcNAc(b1-3)Gal(b1-4)GlcNAc(b1-2)Man(a1-3)[GlcNAc(b1-3)Gal(b1-4)GlcNAc(b1-3)Gal(b1-4)GlcNAc(b1-2)Man(a1-6)]Man(b1-4)GlcNAc(b1-4)GlcNAc
# How it was run: as §1
# [24] = biological target: GlcNAc(b1-3)Gal(b1-4)GlcNAc(b1-3)Gal(b1-4)GlcNAc(b1-2)Man(a1-3)[GlcNAc(b1-3)Gal(b1-4)GlcNAc(b1-3)Gal(b1-4)GlcNAc(b1-2)Man(a1-6)]Man(b1-4)GlcNAc(b1-4)[Fuc(a1-6)]GlcNAc
# How it was run: as §1
# [25] = biological target: GlcNAc(b1-3)Gal(b1-4)GlcNAc(b1-3)Gal(b1-4)GlcNAc(b1-2)[GlcNAc(b1-3)Gal(b1-4)GlcNAc(b1-3)Gal(b1-4)GlcNAc(b1-6)]Man(a1-6)[GlcNAc(b1-3)Gal(b1-4)GlcNAc(b1-3)Gal(b1-4)GlcNAc(b1-2)Man(a1-3)]Man(b1-4)GlcNAc(b1-4)[Fuc(a1-6)]GlcNAc
# How it was run: as §1
# [26] = biological target: GlcNAc(b1-3)Gal(b1-4)GlcNAc(b1-3)Gal(b1-4)GlcNAc(b1-3)Gal(b1-4)GlcNAc(b1-2)Man(a1-3)[GlcNAc(b1-3)Gal(b1-4)GlcNAc(b1-3)Gal(b1-4)GlcNAc(b1-3)Gal(b1-4)GlcNAc(b1-2)Man(a1-6)]Man(b1-4)GlcNAc(b1-4)GlcNAc
# How it was run: as §1
# [27] = biological target: GlcNAc(b1-3)Gal(b1-4)GlcNAc(b1-3)Gal(b1-4)GlcNAc(b1-3)Gal(b1-4)GlcNAc(b1-2)Man(a1-3)[GlcNAc(b1-3)Gal(b1-4)GlcNAc(b1-3)Gal(b1-4)GlcNAc(b1-3)Gal(b1-4)GlcNAc(b1-2)Man(a1-6)]Man(b1-4)GlcNAc(b1-4)[Fuc(a1-6)]GlcNAc
# How it was run: as §1
# [28] = biological target: GlcNAc(b1-3)Gal(b1-4)GlcNAc(b1-3)Gal(b1-4)GlcNAc(b1-3)Gal(b1-4)GlcNAc(b1-2)[GlcNAc(b1-3)Gal(b1-4)GlcNAc(b1-3)Gal(b1-4)GlcNAc(b1-3)Gal(b1-4)GlcNAc(b1-6)]Man(a1-6)[GlcNAc(b1-3)Gal(b1-4)GlcNAc(b1-3)Gal(b1-4)GlcNAc(b1-3)Gal(b1-4)GlcNAc(b1-2)Man(a1-3)]Man(b1-4)GlcNAc(b1-4)[Fuc(a1-6)]GlcNAc
# How it was run: as §1
# [29] = biological target: GlcNAc(b1-3)Gal(b1-4)GlcNAc(b1-3)Gal(b1-4)GlcNAc(b1-3)Gal(b1-4)GlcNAc(b1-3)Gal(b1-4)GlcNAc(b1-2)Man(a1-3)[GlcNAc(b1-3)Gal(b1-4)GlcNAc(b1-3)Gal(b1-4)GlcNAc(b1-3)Gal(b1-4)GlcNAc(b1-3)Gal(b1-4)GlcNAc(b1-2)Man(a1-6)]Man(b1-4)GlcNAc(b1-4)GlcNAc
# How it was run: as §1
# [30] = biological target: GlcNAc(b1-3)Gal(b1-4)GlcNAc(b1-3)Gal(b1-4)GlcNAc(b1-3)Gal(b1-4)GlcNAc(b1-3)Gal(b1-4)GlcNAc(b1-2)Man(a1-3)[GlcNAc(b1-3)Gal(b1-4)GlcNAc(b1-3)Gal(b1-4)GlcNAc(b1-3)Gal(b1-4)GlcNAc(b1-3)Gal(b1-4)GlcNAc(b1-2)Man(a1-6)]Man(b1-4)GlcNAc(b1-4)[Fuc(a1-6)]GlcNAc
# How it was run: as §1
binder,measurement,setting,value
"BT4246 (Bacteroides thetaiotaomicron), Q89ZX5 (protein) MGSSHHHHHHENLYFQGHMASDYLDVVPPEQPNIDDAMSSPTRALGFLYSCYGGVSTDLPSAYLGEINSTTDEYVLPYSWNTDGYWGAYAFNTASSTNQDWLWGTTYQYIGQCYLFLQKLENAGSDIASDAEKEQWRAECQFLVAYYHFATLRRYGPIPITDSYIPMDTPTSEYNGRFHFDYCVDWIANQLDEAAKVLPANRTVTNEWGRATSTIAKAVKARLLLYAASPLWNGSFPYPNWQNENFETPGYGKALVSNTYDKSKWERALAACQEALTLATTSGDRELYDDDEYYSRQSLNLPFVPGVADVEDNKEFLKNVMKMRYAVSTRESEGNKEIIWGLSNQFDFYSRYPLRILKKSDGTWHAGYSGVSPTLYTFEHFYTANGKLPEKDLDFTPSSEWFESAGISSREDIIKLNVGREPRFYAWMAFDGGDYGTKFAAGSPLKLEMRNSEMHGYNPSLFNRDHSVTGFLTQKFVDPVTEFYTAGGSTSGTSAPTILFRLAELYLNVAECHAALGNTQEAIDALNPVRERAGIPKLTLADITNNMTIKDWVHNERFVELWNEGHRFFDVRRWAEGAKYFGANKREGLNAEVQSPTFEEFNKRTTVDAPYVWENRMYLNPVFYNEVYKNPQMVQAPGY",glycan array binding signal (z-score),[1],0.04
same,glycan array binding signal (z-score),[2],1.89
same,glycan array binding signal (z-score),[3],-0.692
same,glycan array binding signal (z-score),[4],-0.482
same,glycan array binding signal (z-score),[5],-0.351
same,glycan array binding signal (z-score),[6],2.52
same,glycan array binding signal (z-score),[7],-1.62
same,glycan array binding signal (z-score),[8],0.48
same,glycan array binding signal (z-score),[9],-0.031
same,glycan array binding signal (z-score),[10],0.184
same,glycan array binding signal (z-score),[11],-1.62
same,glycan array binding signal (z-score),[12],0.064
same,glycan array binding signal (z-score),[13],-0.634
same,glycan array binding signal (z-score),[14],1.1
same,glycan array binding signal (z-score),[15],0.389
same,glycan array binding signal (z-score),[16],-0.081
same,glycan array binding signal (z-score),[17],0.837
same,glycan array binding signal (z-score),[18],0.235
same,glycan array binding signal (z-score),[19],0.802
same,glycan array binding signal (z-score),[20],1.55
same,glycan array binding signal (z-score),[21],0.786
same,glycan array binding signal (z-score),[22],-0.233
same,glycan array binding signal (z-score),[23],-0.667
same,glycan array binding signal (z-score),[24],-0.16
same,glycan array binding signal (z-score),[25],1.52
same,glycan array binding signal (z-score),[26],1.73
same,glycan array binding signal (z-score),[27],2.02
same,glycan array binding signal (z-score),[28],0.637
same,glycan array binding signal (z-score),[29],0.922
same,glycan array binding signal (z-score),[30],-0.328

# Part of the list above, as tab-separated lines.
binder	measurement	setting	value
BT4246 (Bacteroides thetaiotaomicron), Q89ZX5 (protein) MGSSHHHHHHENLYFQGHMASDYLDVVPPEQPNIDDAMSSPTRALGFLYSCYGGVSTDLPSAYLGEINSTTDEYVLPYSWNTDGYWGAYAFNTASSTNQDWLWGTTYQYIGQCYLFLQKLENAGSDIASDAEKEQWRAECQFLVAYYHFATLRRYGPIPITDSYIPMDTPTSEYNGRFHFDYCVDWIANQLDEAAKVLPANRTVTNEWGRATSTIAKAVKARLLLYAASPLWNGSFPYPNWQNENFETPGYGKALVSNTYDKSKWERALAACQEALTLATTSGDRELYDDDEYYSRQSLNLPFVPGVADVEDNKEFLKNVMKMRYAVSTRESEGNKEIIWGLSNQFDFYSRYPLRILKKSDGTWHAGYSGVSPTLYTFEHFYTANGKLPEKDLDFTPSSEWFESAGISSREDIIKLNVGREPRFYAWMAFDGGDYGTKFAAGSPLKLEMRNSEMHGYNPSLFNRDHSVTGFLTQKFVDPVTEFYTAGGSTSGTSAPTILFRLAELYLNVAECHAALGNTQEAIDALNPVRERAGIPKLTLADITNNMTIKDWVHNERFVELWNEGHRFFDVRRWAEGAKYFGANKREGLNAEVQSPTFEEFNKRTTVDAPYVWENRMYLNPVFYNEVYKNPQMVQAPGY	glycan array binding signal (z-score)	[11]	-1.62
same	glycan array binding signal (z-score)	[29]	0.922
